In article PMC6002723 one finds binding data, which are given here for one substance.

The chains behind the UniProt entries cited, without tags or fusion partners. Residues count along the entry.
UniProt P10415: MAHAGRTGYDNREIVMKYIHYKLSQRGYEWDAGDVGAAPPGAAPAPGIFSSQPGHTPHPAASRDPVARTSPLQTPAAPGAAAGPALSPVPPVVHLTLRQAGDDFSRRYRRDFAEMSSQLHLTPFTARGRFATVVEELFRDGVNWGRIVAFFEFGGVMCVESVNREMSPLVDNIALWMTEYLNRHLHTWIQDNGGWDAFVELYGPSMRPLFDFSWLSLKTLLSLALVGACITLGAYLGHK
UniProt Q14790, residues 1-355: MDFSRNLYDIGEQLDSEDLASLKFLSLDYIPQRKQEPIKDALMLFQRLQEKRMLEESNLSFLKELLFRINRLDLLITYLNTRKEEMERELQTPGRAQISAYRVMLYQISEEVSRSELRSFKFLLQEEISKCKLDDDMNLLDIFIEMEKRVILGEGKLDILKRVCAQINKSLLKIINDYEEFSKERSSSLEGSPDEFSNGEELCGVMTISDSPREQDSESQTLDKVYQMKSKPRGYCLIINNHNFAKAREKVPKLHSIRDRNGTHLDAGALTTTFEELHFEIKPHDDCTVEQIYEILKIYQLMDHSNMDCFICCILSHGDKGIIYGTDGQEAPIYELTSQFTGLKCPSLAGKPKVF

No constants are given. Whether binding was seen depends on the method and setting. Binding seen in cells or lysates may run through a third protein. Some results given as binding are weak or reduced against the parent protein; the word gives no strength.

This test concerns the target Bcl2 (UniProt P10415). The test can be described thus: co-IP; 293T cells cotransfected with Bcl-2 and HA-Casp8p41; extracts treated with the DUB Trabid, YOD1 or USP2 with or without NEM; immunoprecipitated with anti-Bcl2 or anti-HA, immunoblotted for HA. In general terms: In western blotting, separated proteins are transferred to a membrane and probed.

“HA-Casp8p41 (from UniProt Q14790 1-355) (domain or fragment)”: the binding result is “binds”.
